{
  "source": "PubChem BioAssay AID1259415",
  "about": "(National Center for Advancing Translational Sciences (NCATS), 2018)",
  "note": "The campaign covered roughly 410,000 compounds. About 18,000 (4.4%) were called active. The shares of active, inactive and inconclusive entries below differ from those in the screen. Rule as the data show it: active = activity change below about -60%; inconclusive = no clear call, values can overlap the other calls; inactive = above about -39%. % is scaled to controls: 0 for no effect and ±100 for the full control effect.",
  "data": [
    {"experiment": "qHTS Assay for inhibitors of the human cytomegalovirus (HCMV)", "conditions": "HFF cells, HCMV-luciferase reporter, 72 h; at 57.5 µM; stronger effect = lower value", "in_short": "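Inhibition of viral replication was scored as loss of reporter luminescence in HFFs infected with HCMV-luciferase (MOI 1 PFU/cell) for 72 h; compounds tested at 2 doses, normalized to buffer and Salinomycin controls.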", "values": [
      {"molecule": "CCOc1ccc(CNC(=S)NCc2ccc(OCC)cc2)cc1", "activity change, negative = inhibition": "inconclusive: -52.2%"},
      {"molecule": "CCn1c(CC(=O)Nc2ccccc2C)nnc1SCC(=O)NC1CCCC1", "activity change, negative = inhibition": "inconclusive: -55.8%"},
      {"molecule": "COc1ccc(C2C([N+](=O)[O-])=C(C)N(C)C(=O)N2C)cc1OC", "note": "(stereo not given)", "activity change, negative = inhibition": "inconclusive: -42.3%"},
      {"molecule": "COc1cc2ncnc(NCc3ccccc3)c2cc1OC", "activity change, negative = inhibition": "inactive: -19.5%"},
      {"molecule": "CC(C)(C)C(=O)Nc1ccc(-c2nc3ccccc3c(=O)o2)cc1", "activity change, negative = inhibition": "active: -64.4%"},
      {"molecule": "COc1ccc(CCNC(=O)Cn2nc(C)c3c(C)n(-c4ccc(C)cc4)nc3c2=O)c(OC)c1", "activity change, negative = inhibition": "active: -91.1%"},
      {"molecule": "CCOc1ccc(S(=O)(=O)N2CCN(C(=S)NC3CC3)CC2)cc1", "activity change, negative = inhibition": "inconclusive: -49.7%"},
      {"molecule": "C[C@H](CO)N1C[C@H](C)[C@@H](CN(C)C(=O)Nc2ccccc2F)OCc2cnnn2CCCC1=O", "activity change, negative = inhibition": "inactive: 4.01%"},
      {"molecule": "COc1cccc(CNc2nc3ccc(C)cc3n3cnnc23)c1", "activity change, negative = inhibition": "inconclusive: -40.1%"},
      {"molecule": "C=CCn1c(SCC(=O)Nc2ccccc2F)nc2ccccc2c1=O", "activity change, negative = inhibition": "inconclusive: -47.7%"},
      {"molecule": "COc1ccc(COC(=O)CCCN=C2NS(=O)(=O)c3ccccc32)cc1F", "activity change, negative = inhibition": "inactive: 13.4%"},
      {"molecule": "COc1cc2c(cc1OC)C(c1ccccc1)N(C(=O)C(C)(C)C)CC2", "note": "(stereo not given)", "activity change, negative = inhibition": "inconclusive: -41.2%"},
      {"molecule": "O=C(CN1CCCC1c1cccs1)Nc1cc(S(=O)(=O)N2CCCCC2)ccc1Cl", "note": "(stereo not given)", "activity change, negative = inhibition": "inconclusive: -42.8%"},
      {"molecule": "O=C(/C=C/C=C/c1ccccc1)CC1(O)C(=O)Nc2ccccc21", "note": "(stereo not given)", "activity change, negative = inhibition": "inactive: 127%"},
      {"molecule": "COc1ccccc1CNCC(=O)Nc1cc(S(=O)(=O)N2CCCCCC2)ccc1Cl", "activity change, negative = inhibition": "inactive: -23%"},
      {"molecule": "CCCC(=O)NC(c1ccc(Cl)cc1)c1ccc2cccnc2c1O", "note": "(stereo not given)", "activity change, negative = inhibition": "active: -99.7%"},
      {"molecule": "C[C@@H]1CC[C@@]23COC(=O)C2=CCC[C@@H]3[C@@]1(C)CC/C(=C/CO)CO", "activity change, negative = inhibition": "inconclusive: -46.6%"},
      {"molecule": "O=C(Nc1cccc(Cl)c1N1CCCCC1)c1ccc2c(c1)OCCO2", "activity change, negative = inhibition": "inconclusive: -48.3%"},
      {"molecule": "Cc1nc2nc(SCc3ccccc3)[nH]n2c(=O)c1C", "activity change, negative = inhibition": "inactive: 30.5%"},
      {"molecule": "CC1(C(=O)NC2CCCCC2)CCC(=O)N1Cc1cccs1", "note": "(stereo not given)", "activity change, negative = inhibition": "inconclusive: -44.9%"},
      {"molecule": "CCc1ccc(C(O)c2ncc(-c3ccc(C)cc3)[nH]2)cc1", "note": "(stereo not given)", "activity change, negative = inhibition": "inactive: -32.6%"},
      {"molecule": "CCCNC(=O)c1cc2nc(-c3ccccc3)cc(C(F)(F)F)n2n1", "activity change, negative = inhibition": "inconclusive: -43.4%"},
      {"molecule": "Cc1ccc(/C=N/NC(=O)c2nnn(-c3nonc3N)c2CSc2ccc(Cl)cc2)o1", "activity change, negative = inhibition": "inconclusive: -43%"},
      {"molecule": "O=C(O)c1ccccc1C(=O)NCc1c(Cl)cccc1Sc1ccc(Cl)cc1", "activity change, negative = inhibition": "inconclusive: -44.4%"},
      {"molecule": "Cc1cccc(NC(=O)c2c(C)oc3ncnc(N4CCCCC4)c23)c1C", "activity change, negative = inhibition": "inconclusive: -46.5%"},
      {"molecule": "CCOC(=O)NC(=O)/C(C#N)=N\\Nc1cccc(Cl)c1", "activity change, negative = inhibition": "inconclusive: -42.4%"},
      {"molecule": "Cc1ccc(C(=O)N2CCN(c3ccccc3)CC2)cc1S(=O)(=O)N1CCCC1", "activity change, negative = inhibition": "inconclusive: -56.4%"},
      {"molecule": "COc1ccc(CCN(/C=C2\\Sc3ccccc3C2=O)C(C)=O)cc1OC", "activity change, negative = inhibition": "inactive: 90.1%"},
      {"molecule": "Cc1sc2nc(SCC(=O)NCc3ccco3)n(C)c(=O)c2c1C", "activity change, negative = inhibition": "inconclusive: -42.6%"},
      {"molecule": "CCOC(=O)N1CCN(C(=O)Cn2ncc3c4ccccc4n(Cc4ccc(F)cc4)c3c2=O)CC1", "activity change, negative = inhibition": "inactive: -29.6%"},
      {"molecule": "COc1ccc(CN2CCN(c3ncnc4scc(-c5ccc(F)cc5)c34)CC2)cc1", "activity change, negative = inhibition": "inactive: 20.7%"},
      {"molecule": "Cc1ccc(NC(=O)c2cc(S(=O)(=O)N3CCCCC3)c[nH]2)cc1F", "activity change, negative = inhibition": "inconclusive: -41.1%"},
      {"molecule": "COc1cccc(Nc2c3c(nc4c(-c5ccccc5)c(C)nn24)CCC3)c1", "activity change, negative = inhibition": "active: -63.4%"},
      {"molecule": "Cc1nn(-c2ccccc2)c2sc(C(=O)Nc3cccc(Br)c3)cc12", "activity change, negative = inhibition": "inconclusive: -50.5%"},
      {"molecule": "C/C(N)=C(/C#N)C(=O)COC(=O)C1CCN(C(=O)c2ccc(Cl)cc2)CC1", "activity change, negative = inhibition": "active: -65.3%"},
      {"molecule": "COC(=O)c1cc(OC)c(OC)cc1NC(=O)C1CCC(=O)N1S(=O)(=O)c1ccc(C)cc1", "note": "(stereo not given)", "activity change, negative = inhibition": "inconclusive: -45.9%"},
      {"molecule": "Cc1ncc(CN2CCN(CCc3ccccc3)C(CCO)C2)s1", "note": "(stereo not given)", "activity change, negative = inhibition": "inconclusive: -45.1%"},
      {"molecule": "CN(C)S(=O)(=O)c1ccc(C(=O)NCc2ccccn2)cc1", "activity change, negative = inhibition": "inconclusive: -43.3%"},
      {"molecule": "CCc1nc(NCc2ccccn2)c2oc3ccccc3c2n1", "activity change, negative = inhibition": "active: -63.3%"},
      {"molecule": "COc1ccc(CNS(=O)(=O)c2ccc(-c3ccc(=O)[nH]n3)o2)cc1", "activity change, negative = inhibition": "inactive: -39.6%"},
      {"molecule": "O=C(Nc1ccc(N2CCOCC2)cc1)c1cccc2c(-c3ccc(F)c(F)c3)coc12", "activity change, negative = inhibition": "inconclusive: -41.6%"},
      {"molecule": "Nc1ncncc1-c1ccc([N+](=O)[O-])cc1", "activity change, negative = inhibition": "inconclusive: -56%"},
      {"molecule": "COc1ccc(CNC(=O)CN(Cc2ccc(OC)cc2)C(=O)CCC(=O)Nc2nccs2)cc1", "activity change, negative = inhibition": "inconclusive: -40.2%"},
      {"molecule": "Cc1c(CN2CCC(CO)(Cc3cccc(C(F)(F)F)c3)CC2)c2ccccc2n1C", "activity change, negative = inhibition": "active: -99.4%"},
      {"molecule": "O=C(CNS(=O)(=O)c1cccc(Cl)c1)Nc1ccc(-c2nc3ccccc3s2)cc1", "activity change, negative = inhibition": "inactive: 103%"},
      {"molecule": "O=Nc1ccc(NOC(=O)c2ccccc2Br)cc1", "activity change, negative = inhibition": "inconclusive: -50.6%"},
      {"molecule": "COc1ccc(C(=O)Nc2nc3c(s2)Cc2cc(OC)ccc2-3)cc1", "activity change, negative = inhibition": "inconclusive: -51.1%"},
      {"molecule": "NC(=S)NN=C(c1ccccc1)c1ccccc1", "activity change, negative = inhibition": "inactive: 19.2%"},
      {"molecule": "O=C(c1cnn(C(=O)c2ccccc2)c1)c1ccccc1O", "activity change, negative = inhibition": "inconclusive: -55.4%"},
      {"molecule": "C[C@@H]1CN([C@@H](C)CO)C(=O)CCCn2nncc2CO[C@H]1CN(C)Cc1ccc2c(c1)OCCO2", "activity change, negative = inhibition": "inactive: 13.7%"},
      {"molecule": "CN(C(=O)Cn1nnc(-c2ccc(S(C)(=O)=O)cc2)n1)c1ccccc1", "activity change, negative = inhibition": "inconclusive: -42.9%"},
      {"molecule": "O=C(C1CCN(S(=O)(=O)c2cccs2)CC1)N1CCCC(C(F)(F)F)C1", "note": "(stereo not given)", "activity change, negative = inhibition": "active: -98.4%"},
      {"molecule": "Cc1nn(-c2ccccc2)c(C)c1/C=N/n1c(-c2ccc(C(C)(C)C)cc2)n[nH]c1=S", "activity change, negative = inhibition": "inactive: -17.7%"},
      {"molecule": "COCCN(CCOC)c1nc(-c2ccc(Cl)cc2)nc2ccccc12", "activity change, negative = inhibition": "inconclusive: -51.2%"},
      {"molecule": "Clc1ccc(-c2nnc(-c3ccco3)nc2N2CCCCC2)cc1", "activity change, negative = inhibition": "inconclusive: -53%"}
    ]}
  ]
}
